In US20050272682A1, “SiRNA targeting PI3K signal transduction pathway and siRNA-based therapy” (priority 2004, published 2005):
For at least one compound, name, drawing or mass did not settle the structure.

Key:
DSS-induced colitis mice = assay: DSS-induced colitis in mice, wortmannin by oral gavage; format: in vivo
Procedure: 60 male C57/bl6 mice aged 8 weeks and weighed around 20 g were administered with 5% (w/v) dextran sulfate sodium (DSS) in drinking water for 7 days. DSS used was 5000 MW sulfated polysaccharide (Sigma Chemical Co., St. Louis, Mo.). It is believed that DSS has direct cytotoxic effects on epithelial cells, immune cell function interference, and luminal microflora. DSS-induced inflammatory bowel disease (IBD) was characterized by epithelial damage, mucosal inflammatory infiltrates, and luminal ulceration similar to ulcerative colitis (see FIG. 1, panels A and B).
A validated clinical disease activity index (DAI) (Murano, et al., 2000; Murthy, et al., 1993) ranging from a score of 0 to 4 was calculated by an investigator blinded to the protocol using the following parameters: stool consistency, presence of fecal blood, and changes in body weight (Murano, et al., 2000). The stool consistency was assessed using the following four point scale: 0, normal; 1, soft; 2, very soft but formed; and 3, liquid. The intensity of the hemoccult paper test was scored by the following scale: 0, negative; 1, faintly blue; 2, moderately blue; 3, dark blue; and 4, blood visible.
Mice were weighed daily and sacrificed on day 7. Large intestine was removed at sacrifice and either snap-frozen for protein extraction or placed in formalin for histologic analysis.
Histology sections of large intestine were stained with H&E to evaluate degree of inflammatory changes in the mice before and after the wortmannin treatment. Neutrophil sequestration was assessed through MPO assay. Once the protein was extracted, Western blot was performed to determine expression levels of PI3K isozymes (p85α and p110δ), and Akt, phosphorylated (i.e., activated) Akt (pAkt). β-actin was used as a loading control. Levels of cytokines (e.g., IL-1β, IL-6, MIP-2 and TNFα) and p65 NF-κB concentration were also assessed in colonic tissues through cytokine ELISA.

[1] = tested on: HT29 colorectal cancer cells; conditions: Wang, et al., 2002; cited from earlier work
[2] = colon, DSS + wortmannin vs DSS alone

Question: What does the source list for `COC[C@H]1OC(=O)c2coc3c2[C@@]1(C)C1=C(C3=O)[C@@H]2CCC(=O)[C@@]2(C)C[C@H]1OC(C)=O` [wortmannin, Wortmannin]?
Answer: leukocyte infiltration and submucosal edema (H&E histology) (DSS-induced colitis mice; DSS + wortmannin): reduced; mucosal damage (H&E histology) (DSS-induced colitis mice; DSS + wortmannin): still evident; weight loss associated with DSS (DSS-induced colitis mice; DSS + wortmannin 1.5 mg/kg oral gavage): no improvement; MPO activity (leukocyte infiltration) (DSS-induced colitis mice; [2]): significantly reduced; p65 NF-κB activity (DSS-induced colitis mice; [2]): significantly reduced; tissue levels of cytokines (IL-1β, IL-6, MIP-2 and TNFα) (DSS-induced colitis mice; [2]): significantly reduced; TRAIL mRNA expression [1]: induce
